{"sequences": {"note": "By UniProt entry, the sequences of proteins in these tests, tags left out.", "UniProt Q61687": "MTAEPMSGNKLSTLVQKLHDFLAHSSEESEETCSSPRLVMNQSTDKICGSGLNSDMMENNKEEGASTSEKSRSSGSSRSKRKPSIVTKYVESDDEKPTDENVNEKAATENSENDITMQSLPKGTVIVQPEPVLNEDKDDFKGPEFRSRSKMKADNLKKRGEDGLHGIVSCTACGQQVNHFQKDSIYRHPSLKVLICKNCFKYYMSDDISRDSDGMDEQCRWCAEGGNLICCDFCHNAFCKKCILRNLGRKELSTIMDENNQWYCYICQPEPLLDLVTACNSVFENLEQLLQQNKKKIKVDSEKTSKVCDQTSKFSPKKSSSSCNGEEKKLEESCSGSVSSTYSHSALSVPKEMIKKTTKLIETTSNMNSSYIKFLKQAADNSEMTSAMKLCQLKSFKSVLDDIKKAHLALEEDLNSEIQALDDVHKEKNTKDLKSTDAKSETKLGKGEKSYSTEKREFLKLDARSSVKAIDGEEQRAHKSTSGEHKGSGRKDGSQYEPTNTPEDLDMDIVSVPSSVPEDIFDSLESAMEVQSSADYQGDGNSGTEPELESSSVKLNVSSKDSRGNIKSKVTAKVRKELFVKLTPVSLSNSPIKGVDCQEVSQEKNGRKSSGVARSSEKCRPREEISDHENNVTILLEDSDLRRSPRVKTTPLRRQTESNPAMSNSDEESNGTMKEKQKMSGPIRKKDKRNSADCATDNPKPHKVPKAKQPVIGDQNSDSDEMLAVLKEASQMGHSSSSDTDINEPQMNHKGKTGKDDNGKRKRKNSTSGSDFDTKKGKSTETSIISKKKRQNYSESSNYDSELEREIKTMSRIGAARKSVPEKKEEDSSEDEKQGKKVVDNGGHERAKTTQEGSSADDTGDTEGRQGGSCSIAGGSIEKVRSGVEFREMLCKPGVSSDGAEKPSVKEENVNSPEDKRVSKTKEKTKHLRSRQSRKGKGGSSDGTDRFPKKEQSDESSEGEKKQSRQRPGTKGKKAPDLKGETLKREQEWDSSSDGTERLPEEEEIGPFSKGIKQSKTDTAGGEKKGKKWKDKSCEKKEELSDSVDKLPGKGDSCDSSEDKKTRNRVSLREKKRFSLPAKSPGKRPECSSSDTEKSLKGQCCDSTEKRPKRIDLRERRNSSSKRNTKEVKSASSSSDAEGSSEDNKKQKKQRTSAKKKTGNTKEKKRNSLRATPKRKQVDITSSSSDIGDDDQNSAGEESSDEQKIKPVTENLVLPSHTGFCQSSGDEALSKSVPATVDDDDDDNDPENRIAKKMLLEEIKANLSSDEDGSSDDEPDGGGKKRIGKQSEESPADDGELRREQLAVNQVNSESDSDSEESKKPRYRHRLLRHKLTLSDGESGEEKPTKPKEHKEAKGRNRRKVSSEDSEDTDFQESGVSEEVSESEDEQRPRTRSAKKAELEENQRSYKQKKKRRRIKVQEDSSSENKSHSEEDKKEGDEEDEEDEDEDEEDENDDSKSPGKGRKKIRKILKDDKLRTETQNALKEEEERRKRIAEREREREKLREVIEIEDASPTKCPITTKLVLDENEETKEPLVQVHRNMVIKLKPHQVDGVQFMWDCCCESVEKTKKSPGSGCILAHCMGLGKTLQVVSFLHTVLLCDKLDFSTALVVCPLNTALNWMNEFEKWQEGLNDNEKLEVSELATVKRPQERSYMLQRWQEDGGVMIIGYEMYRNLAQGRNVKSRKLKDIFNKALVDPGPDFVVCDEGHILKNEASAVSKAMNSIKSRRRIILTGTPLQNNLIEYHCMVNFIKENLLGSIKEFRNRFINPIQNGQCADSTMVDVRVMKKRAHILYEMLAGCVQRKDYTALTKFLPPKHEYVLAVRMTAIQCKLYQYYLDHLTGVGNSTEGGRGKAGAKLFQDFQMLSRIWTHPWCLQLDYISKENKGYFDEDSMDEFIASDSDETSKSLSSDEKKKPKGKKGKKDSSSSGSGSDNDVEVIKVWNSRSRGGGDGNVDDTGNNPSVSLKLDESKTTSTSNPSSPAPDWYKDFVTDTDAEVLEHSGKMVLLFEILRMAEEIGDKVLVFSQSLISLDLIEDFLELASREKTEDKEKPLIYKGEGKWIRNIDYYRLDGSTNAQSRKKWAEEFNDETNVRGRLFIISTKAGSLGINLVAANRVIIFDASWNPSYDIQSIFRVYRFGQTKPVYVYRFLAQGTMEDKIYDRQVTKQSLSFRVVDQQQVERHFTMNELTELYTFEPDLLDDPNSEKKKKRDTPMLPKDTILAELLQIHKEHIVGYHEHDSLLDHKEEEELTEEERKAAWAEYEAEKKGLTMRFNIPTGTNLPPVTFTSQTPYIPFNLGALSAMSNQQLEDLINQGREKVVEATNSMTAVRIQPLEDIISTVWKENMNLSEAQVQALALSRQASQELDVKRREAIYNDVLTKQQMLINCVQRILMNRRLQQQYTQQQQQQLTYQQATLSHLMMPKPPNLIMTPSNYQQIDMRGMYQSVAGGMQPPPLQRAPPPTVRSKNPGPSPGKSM", "UniProt O35613": "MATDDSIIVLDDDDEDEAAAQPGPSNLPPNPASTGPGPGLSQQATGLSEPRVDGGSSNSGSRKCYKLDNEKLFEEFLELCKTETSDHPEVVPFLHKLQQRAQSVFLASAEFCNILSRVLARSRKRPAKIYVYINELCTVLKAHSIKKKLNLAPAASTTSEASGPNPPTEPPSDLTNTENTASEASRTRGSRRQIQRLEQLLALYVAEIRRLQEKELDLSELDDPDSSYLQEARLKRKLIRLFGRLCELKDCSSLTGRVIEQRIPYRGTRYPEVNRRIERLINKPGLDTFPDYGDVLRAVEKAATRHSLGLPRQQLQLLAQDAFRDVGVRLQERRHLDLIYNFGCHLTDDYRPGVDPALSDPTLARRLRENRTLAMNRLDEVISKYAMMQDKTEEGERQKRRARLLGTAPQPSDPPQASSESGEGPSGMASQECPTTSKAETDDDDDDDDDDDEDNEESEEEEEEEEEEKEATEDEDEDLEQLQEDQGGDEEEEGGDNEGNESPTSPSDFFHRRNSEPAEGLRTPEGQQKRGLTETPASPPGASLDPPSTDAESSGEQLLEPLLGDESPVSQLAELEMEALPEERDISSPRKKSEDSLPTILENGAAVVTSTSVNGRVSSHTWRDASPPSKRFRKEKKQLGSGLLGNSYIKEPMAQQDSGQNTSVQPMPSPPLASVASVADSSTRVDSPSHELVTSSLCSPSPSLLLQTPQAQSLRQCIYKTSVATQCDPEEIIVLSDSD"}, "source": "paper PMC3657165", "key": {"[1]": {"biological_target": "ATRX (endogenous, mouse brain and cortical neurons) (mouse (endogenous in mouse brain and cortical neurons)) (UniProt Q61687)", "test": "co-IP; extracts of isolated mouse cortical neurons, endogenous proteins, untreated or treated with KCl (Figure S2J)"}, "[2]": {"biological_target": "ATRX (endogenous, mouse brain and cortical neurons) (mouse (endogenous in mouse brain and cortical neurons)) (UniProt Q61687)", "test": "co-IP; mouse whole-brain extracts, endogenous proteins (Figure S1I); details in the Supplemental Experimental Procedures"}}, "note": "These are yes or no findings as the source states them, for the method shown. In cells and extracts the contact can be indirect. Some results given as binding are weak or reduced against the parent protein; the word gives no strength."}
{"substance": "DAXX (endogenous, mouse brain and cortical neurons) (from UniProt O35613 1-739)", "values": [{"measurement": "binding", "setting": "[1]", "result": "binds"}, {"measurement": "binding", "setting": "[2]", "result": "binds"}]}
